Data as given in patent US8883850B2, “Naphthalene carboxamide M1 receptor positive allosteric modulators” (Merck Sharp & Dohme Corp., priority 2010, dated 2014).

Amino acid sequences for entries named in this document (tags omitted).
UniProt P11229, whole entry: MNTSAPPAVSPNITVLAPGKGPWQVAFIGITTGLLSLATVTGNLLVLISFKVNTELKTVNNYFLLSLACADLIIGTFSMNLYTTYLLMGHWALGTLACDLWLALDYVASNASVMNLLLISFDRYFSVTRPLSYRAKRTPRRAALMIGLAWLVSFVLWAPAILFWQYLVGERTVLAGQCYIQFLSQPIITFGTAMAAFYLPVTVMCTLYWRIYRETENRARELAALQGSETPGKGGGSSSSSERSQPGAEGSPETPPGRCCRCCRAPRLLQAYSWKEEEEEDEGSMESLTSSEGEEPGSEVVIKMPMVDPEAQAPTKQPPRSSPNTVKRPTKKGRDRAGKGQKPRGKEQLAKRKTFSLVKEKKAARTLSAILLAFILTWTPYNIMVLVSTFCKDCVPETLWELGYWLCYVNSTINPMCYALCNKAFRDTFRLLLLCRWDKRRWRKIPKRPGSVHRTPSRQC

Biological target: acetylcholine muscarinic M1 receptor (Homo sapiens, UniProt P11229)
Test: M1 FLIPR assay: intracellular calcium, potentiation of acetylcholine EC20
Settings: read-out: M1 IP Value; inflection point value from FLIPR assay; CHOnfat/hM1 cells; 4 min pre-incubation, then acetylcholine EC20 (3 nM final); Table 1, Formula (III)

COc1c(C(=O)N[C@H]2CCCC[C@@H]2O)cc(Cc2ccc(C(=O)CCCCOC=O)nc2)c2ccccc12 gave an EC50 of 430 nM.

The structures given here were assigned with low confidence; some may be wrong.
